PubChem BioAssay AID652243, Drosophila RNAi Screening Center – 2013
Purpose: 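Knock-downs that decrease or increase androgen receptor reporter signal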 (primary screen). System: Drosophila S2R+ cells. Knock-down reagent: long dsRNA against Drosophila genes. Time to read-out: 72 h (48 h, then 24 h hormone). Challenge: synthetic androgen R1881 at 10 nM for 24 h. Measurement: 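Per-well raw luminescence of the androgen-driven firefly reporter and of the Renilla control, two replicates each, without normalisation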. Direction: firefly reporter light: higher = more light from androgen-responsive reporter; Renilla control light: higher = more constitutive control signal (cell number, transfection). Call rule: 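Hit when the log firefly-to-Renilla ratio dropped or increased by a fixed fold versus the mean of GFP or LacZ controls across duplicate plates; lowering cut given as 1.5 and as 3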. Calls: active = hit: reporter lowered or raised; inactive = no hit.
In all, the deposit lists about 24,000 reagents; this is a random part of those that have a named target and a result. Of all reagents, 246 (1%) are marked active. 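Plates not normalised; calls are printed but the firefly/Renilla ratio behind them is not deposited; fold cut for lowering reported inconsistently.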 Raw values are not corrected between plates. Names joined by + are all predicted targets of the reagent. Not stated in the record: the amount of reagent.

The first 3 entries, to show the layout:
predicted target | DRSC id | firefly reporter light, replicate 1 | firefly reporter light, replicate 2 | Renilla control light, replicate 1 | Renilla control light, replicate 2 | activity call
Jhbp6 (Juvenile hormone binding protein 6) | DRSC11714 | 1.41e5 | 1.23e5 | 2.23e6 | 2.20e6 | inactive
Jhbp6 (Juvenile hormone binding protein 6) | DRSC26892 | 3.30e5 | 4.03e5 | 6.92e5 | 8.19e5 | inactive
CG16727 | DRSC15139 | 3.04e5 | 2.85e5 | 3.44e6 | 3.77e6 | inactive

Results, from the first entry:
predicted target | DRSC id | firefly reporter light, replicate 1 | firefly reporter light, replicate 2 | Renilla control light, replicate 1 | Renilla control light, replicate 2 | activity call
Jhbp6 (Juvenile hormone binding protein 6) | DRSC11714 | 1.41e5 | 1.23e5 | 2.23e6 | 2.20e6 | inactive
Jhbp6 (Juvenile hormone binding protein 6) | DRSC26892 | 3.30e5 | 4.03e5 | 6.92e5 | 8.19e5 | inactive
CG16727 | DRSC15139 | 3.04e5 | 2.85e5 | 3.44e6 | 3.77e6 | inactive
CG16727 | DRSC26820 | 3.88e5 | 4.14e5 | 6.86e5 | 7.07e5 | inactive
Taf10b (TBP-associated factor 10b) | DRSC26605 | 2.00e5 | 1.94e5 | 3.52e5 | 3.72e5 | inactive
CG34140 + Mkp | DRSC26000 | 5.05e5 | 6.08e5 | 4.90e5 | 4.39e5 | inactive
fl(2)d (female lethal d) | DRSC07620 | 51767 | 1.58e5 | 1.48e6 | 1.48e6 | inactive
CG9945 | DRSC07347 | 1.63e5 | 1.01e5 | 1.07e6 | 1.03e6 | inactive
CG9945 | DRSC28885 | 4.09e5 | 3.68e5 | 9.71e5 | 7.45e5 | inactive
dgt2 (dim gamma-tubulin 2) | DRSC02548 | 2.53e5 | 2.74e5 | 1.50e6 | 1.42e6 | inactive
dgt2 (dim gamma-tubulin 2) | DRSC29741 | 3.52e5 | 3.51e5 | 1.00e6 | 1.12e6 | inactive
comr (cookie monster) | DRSC04138 | 2.69e5 | 2.71e5 | 1.57e6 | 1.20e6 | inactive
CG4615 | DRSC17491 | 5.02e5 | 7.08e5 | 3.52e5 | 3.68e5 | inactive
CG4615 | DRSC18376 | 62238 | 72038 | 4.97e5 | 4.83e5 | inactive
CG4615 | DRSC26722 | 4.59e5 | 7.17e5 | 8.91e5 | 7.07e5 | inactive
CG14089 | DRSC10093 | 2.28e5 | 2.08e5 | 2.71e6 | 2.04e6 | inactive
CG14089 | DRSC24848 | 7.64e5 | 9.56e5 | 9.97e5 | 8.24e5 | inactive
f-cup (flyers-cup) | DRSC14139 | 41434 | 80190 | 2.11e5 | 2.43e5 | inactive
f-cup (flyers-cup) | DRSC28933 | 4.43e5 | 4.28e5 | 9.96e5 | 1.30e6 | inactive
alpha-Est4aPsi (pseudo) | DRSC12473 | 3.09e5 | 3.52e5 | 5.72e5 | 6.33e5 | inactive
CG17344 | DRSC02607 | 1.54e5 | 1.46e5 | 1.33e6 | 1.58e6 | inactive
CG31036 | DRSC15055 | 1.23e5 | 1.47e5 | 2.32e6 | 2.65e6 | inactive
CG31036 | DRSC15057 | 1.94e5 | 1.29e5 | 2.05e6 | 2.39e6 | inactive
eya (eyes absent) | DRSC03510 | 8.94e5 | 1.24e6 | 1.69e6 | 1.91e6 | inactive
eya (eyes absent) | DRSC37547 | – | – | – | – | inactive
eya (eyes absent) | DRSC39294 | – | – | – | – | inactive
pod1 (pod1 coronin) | DRSC18362 | 50410 | 59134 | 4.90e5 | 3.49e5 | inactive
pod1 (pod1 coronin) | DRSC23544 | 4.89e5 | 5.13e5 | 5.08e5 | 7.11e5 | inactive
Naam (Nicotinamide amidase) | DRSC16252 | 2.74e5 | 3.89e5 | 3.93e6 | 3.51e6 | inactive
Hibch (3-hydroxyisobutyryl-CoA hydrolase) | DRSC15705 | 24131 | 49490 | 3.60e5 | 3.92e5 | inactive
Hibch (3-hydroxyisobutyryl-CoA hydrolase) | DRSC27536 | 3.19e5 | 2.68e5 | 2.18e5 | 2.67e5 | inactive
Ggamma1 (G protein gamma subunit 1) | DRSC07435 | 1.11e6 | 5.77e5 | 3.31e6 | 2.06e6 | inactive
Taf3 (TBP-associated factor 3) | DRSC17170 | 56848 | 56185 | 5.34e5 | 3.28e5 | inactive
Taf3 (TBP-associated factor 3) | DRSC29650 | 4.21e5 | 4.81e5 | 7.73e5 | 7.73e5 | inactive
Syx7 (Syntaxin 7) | DRSC11763 | 65372 | 87222 | 6.54e5 | 7.51e5 | inactive
Dredd (Death related ced-3/Nedd2-like caspase) | DRSC18461 | 51066 | 20585 | 4.34e5 | 2.93e5 | inactive
CG7227 | DRSC03032 | 5.86e5 | 9.15e5 | 1.09e6 | 1.18e6 | inactive
CG30196 | DRSC04156 | 4.25e5 | 3.86e5 | 2.47e6 | 2.11e6 | inactive
CG13760 | DRSC18617 | 1.66e5 | 2.86e5 | 3.00e6 | 2.57e6 | inactive
CG13837 | DRSC14687 | 1.55e5 | 2.32e5 | 2.48e6 | 2.58e6 | inactive
Snx3 (Sorting nexin 3) | DRSC16027 | 1.33e5 | 1.12e5 | 2.50e6 | 2.31e6 | inactive
Snx3 (Sorting nexin 3) | DRSC28751 | 3.42e5 | 5.35e5 | 1.02e6 | 1.60e6 | inactive
Tis11 (Tis11 zinc finger protein) | DRSC23110 | 5.25e5 | 6.33e5 | 2.54e5 | 3.31e5 | inactive
kl-5 (retired record) | DRSC20707 | 2.22e5 | 2.28e5 | 5.92e5 | 5.18e5 | inactive
kl-5 (retired record) | DRSC20736 | 5.92e5 | 5.76e5 | 4.78e5 | 3.88e5 | inactive
kl-5 (retired record) | DRSC20773 | 1.11e6 | 7.34e5 | 1.19e6 | 7.80e5 | inactive
kl-5 (retired record) | DRSC21161 | 6.50e5 | 5.11e5 | 6.56e5 | 7.36e5 | inactive
Ntmt (N-terminal methyltransferase) | DRSC06624 | 2.80e5 | 2.90e5 | 2.65e6 | 1.92e6 | inactive
Ntmt (N-terminal methyltransferase) | DRSC28647 | 7.58e5 | 4.96e5 | 1.27e6 | 1.35e6 | inactive
CG31191 | DRSC15214 | 2.30e5 | 2.96e5 | 2.84e6 | 2.66e6 | inactive
CG17896 | DRSC18502 | 37322 | 44799 | 4.60e5 | 4.28e5 | inactive
CG17896 | DRSC28472 | 4.51e5 | 2.46e5 | 6.17e5 | 6.23e5 | inactive
CG13409 | DRSC14585 | 2.70e5 | 2.75e5 | 3.27e6 | 3.45e6 | inactive
CG15025 | DRSC15031 | 1.86e5 | 2.00e5 | 2.35e6 | 2.67e6 | inactive
CG15539 | DRSC15075 | 2.57e5 | 2.14e5 | 3.03e6 | 3.31e6 | inactive
Ccdc58 (Coiled-coil domain-containing 58) | DRSC10218 | 42327 | 79936 | 4.73e5 | 3.79e5 | inactive
Hsc70-1 (Heat shock protein 70 cognate 1) | DRSC11185 | 2.80e5 | 1.58e5 | 9.17e5 | 8.34e5 | inactive
Hsc70-1 (Heat shock protein 70 cognate 1) | DRSC25201 | 5.67e5 | 2.63e5 | 5.29e5 | 5.76e5 | inactive
